Measurements reported in PubChem BioAssay AID504774 (Drosophila RNAi Screening Center, 2011).

Aim: 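Genes required for cells to withstand methyl methanesulphonate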 (primary screen)
Cells: Drosophila Kc167 cells
Knock-down reagent: long dsRNA against Drosophila genes, about 0.25 µg dsRNA per well
Timing: about 6 days: 3 days knock-down, then 3 days with or without MMS
Treatment: methyl methanesulphonate 0.004% (w/v) for 3 days after knock-down
Measured: 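Viability in wells given MMS, read as ATP luminescence, normalised by quantiles plate by plate and averaged across replicates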
Scale: mean viability with MMS: higher = more surviving cells after MMS
The deposit covers about 23,000 reagents; shown is an unselected part of those that have a named target and a result. 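Values are quantile-normalised luminescence on an arbitrary scale; higher means more cells surviving MMS.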 Further read-outs or replicates are left out here. Reagent sequences are not shown.

CG12560 [DRSC02174] scored mean viability with MMS 3.67e6.
After knock-down of CG42566 [DRSC03949], the record shows mean viability with MMS 3.54e6.
CG13806 [DRSC08341] gave mean viability with MMS 3.51e6.
After knock-down of CG14074 [DRSC10079], the record shows mean viability with MMS 3.33e6.
Against CG8773 [DRSC16444] the deposit lists mean viability with MMS 3.36e6.
For CG33784 [DRSC12764], the entry reads mean viability with MMS 3.62e6.
CG31406 [DRSC12777] scored mean viability with MMS 3.47e6.
Silencing of CG15126 [DRSC06548] gave: mean viability with MMS 3.57e6.
Silencing of Rnmt [DRSC03558] resulted in: mean viability with MMS 3.53e6.
CG8654 [DRSC07231] scored mean viability with MMS 3.65e6.
r2d2 [DRSC03014] scored mean viability with MMS 3.44e6.
Knock-down of SC35 [DRSC02502] came out at: mean viability with MMS 3.38e6.
For SC35 [DRSC03425] the deposit lists mean viability with MMS 3.45e6.
For fd19B [DRSC20688] the deposit lists mean viability with MMS 3.59e6.
After knock-down of otp [DRSC04050], the record shows mean viability with MMS 3.52e6.
With knock-down of otp [DRSC04707], the screen gave mean viability with MMS 3.33e6.
sle [DRSC14557] scored mean viability with MMS 3.59e6.
Against Spc105R [DRSC11663], the values are mean viability with MMS 3.02e6.
Knock-down of CG30391 [DRSC21572] gave: mean viability with MMS 3.56e6.
With knock-down of jumu [DRSC16651] the results were mean viability with MMS 3.45e6.
Depletion of Sas10 [DRSC18355] gave: mean viability with MMS 3.47e6.
Against CG14624 [DRSC18634] the deposit lists mean viability with MMS 3.40e6.
Depletion of CG32022 [DRSC09678] came out at: mean viability with MMS 3.48e6.
Silencing of CG8072 [DRSC10960] came out at: mean viability with MMS 3.57e6.
